Data source: PubChem BioAssay AID686938 (Drosophila RNAi Screening Center, 2013)
Assay: 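Fly genes required for calcium entry once internal stores are emptied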 (primary screen). Cells: Drosophila S2R+ cells. Reagent: long dsRNA against Drosophila genes, about 0.25 µg dsRNA per well, roughly 10,000 cells. Timing: 5 days of knock-down before the calcium assay. Treatment: thapsigargin (SERCA pump blocker) to empty calcium stores; entry signal taken 4 min after adding it. Measurement: 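Per-well fluo-4 fluorescence in two replicates, unnormalised, measured in resting cells and 4 min after store depletion by the SERCA blocker thapsigargin; ratio of the two present in few wells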. Direction: calcium entry signal: higher = stronger calcium signal after store depletion; resting calcium signal: higher = higher resting calcium signal. Call rule: 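Hit if the duplicate-averaged plate z-score for entry over resting signal is under −3; wells with weak total dye signal (Fmax z < −2) or more than 5 off-targets removed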. Meaning of the calls: active = strongly reduced calcium entry; inactive = no strong reduction.
In all, the deposit lists about 23,000 reagents; below is a random part of those that have a named target and a result. Of all reagents, 75 (0.33%) are marked active. 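Raw plate signals without normalisation; calls rest on plate z-scores that were not deposited; ratio present for only 364 wells.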 A number with no mark means an inactive call. The numbers tell different reagents against one gene apart. Names joined by + are all predicted targets of the reagent. Not given: the dose of the treatment.

target gene	reagent	calcium entry signal, replicate 1 (fluorescence units)	calcium entry signal, replicate 2 (fluorescence units)	resting calcium signal, replicate 1 (fluorescence units)	resting calcium signal, replicate 2 (fluorescence units)
betaTub60D	1	4.25e7	4.00e7	2.20e7	1.78e7
betaTub60D	2	4.09e7	4.67e7	1.86e7	2.64e7
RpS19a	1	1.05e7	9.13e6	8.08e6	6.75e6
CG6685	1	2.71e7	3.79e7	1.43e7	1.64e7
CheA75a	1	3.93e7	5.89e7	1.83e7	3.87e7
Vajk3	1	4.44e7		2.09e7	
CG5756	1	3.49e7	3.98e7	1.50e7	1.79e7
CG12115	1	1.80e7	2.71e7	8.70e6	1.23e7
Rgk1	1	3.28e7	3.93e7	1.62e7	2.02e7
Rgk1	2	3.43e7	4.99e7	1.60e7	2.30e7
Rgk1	3	2.26e7	5.31e7	1.07e7	2.31e7
Rgk1	4	5.23e7	3.53e7	1.92e7	1.75e7
Rgk1	5	2.85e7	3.07e7	1.53e7	1.73e7
CG13305	1	3.66e7	3.64e7	1.76e7	1.52e7
yellow-f2	1	4.27e7	5.18e7	1.59e7	2.15e7
Gr36a	1	2.94e7	2.48e7	1.41e7	1.10e7
CG42502 + CG10570	1	4.22e7		1.94e7	
Tudor-SN	1	5.00e7	4.09e7	2.36e7	2.23e7
SERCA	1	3.30e7 (active)		2.65e7	

4 entries from above, reformatted:
| target gene | reagent | calcium entry signal, replicate 1 (fluorescence units) | calcium entry signal, replicate 2 (fluorescence units) | resting calcium signal, replicate 1 (fluorescence units) | resting calcium signal, replicate 2 (fluorescence units) |
| --- | --- | --- | --- | --- | --- |
| CG13305 | 1 | 3.66e7 | 3.64e7 | 1.76e7 | 1.52e7 |
| yellow-f2 | 1 | 4.27e7 | 5.18e7 | 1.59e7 | 2.15e7 |
| Gr36a | 1 | 2.94e7 | 2.48e7 | 1.41e7 | 1.10e7 |
| CG42502 + CG10570 | 1 | 4.22e7 | – | 1.94e7 | – |

More reagents:
target gene	reagent	calcium entry signal, replicate 1 (fluorescence units)	calcium entry signal, replicate 2 (fluorescence units)	resting calcium signal, replicate 1 (fluorescence units)	resting calcium signal, replicate 2 (fluorescence units)
CG32809	1	3.73e7	4.56e7	1.63e7	2.24e7
CG32809	2	3.50e7	4.20e7	1.66e7	2.10e7
CG14569	1	2.73e7	4.42e7	1.30e7	1.85e7
eIF3m	1	1.86e7	2.71e7	1.17e7	1.84e7
SoxN	1	1.64e7	2.41e7	1.06e7	1.17e7
SoxN	2	3.42e7	3.12e7	2.07e7	1.57e7
CG10663	1	2.97e7	2.89e7	1.66e7	1.43e7
Daao2	1	3.65e7		1.66e7	
Ppt2	1	4.62e7		1.95e7	
Ptx1	1	4.18e7	5.91e7	2.18e7	2.45e7
fry	1	4.56e7	4.64e7	2.38e7	2.04e7
fry	2	3.16e7	3.82e7	1.54e7	1.71e7
fry	3	2.78e7	3.54e7	1.47e7	1.57e7
fry	4	6.06e7	4.74e7	3.70e7	2.23e7
Cubn2	1	2.16e7	3.01e7	1.12e7	1.37e7
Cubn2	2	3.06e7	3.81e7	1.47e7	1.94e7
Rab30	1	3.45e7	3.87e7	1.64e7	1.74e7
inaF-C	1	2.81e7	2.99e7	1.50e7	1.36e7
Klp10A	1	2.98e7	3.89e7	1.48e7	1.70e7
Ir51a	1	3.72e7	4.58e7	1.78e7	1.93e7
CG6067	1	2.63e7	4.42e7	1.40e7	2.10e7
jtb	1	5.77e7	6.92e7	2.49e7	3.28e7
Cyp4aa1	1	2.78e7	2.84e7	1.34e7	1.38e7
CG5346	1	3.75e7	3.96e7	5.24e7	1.73e7
uzip	1	3.45e7		1.66e7	
CG6664	1	3.02e7	5.00e7	1.36e7	3.14e7
TwdlU	1	2.71e7	4.05e7	1.20e7	1.59e7
CG1738	1	3.19e7	2.63e7	1.83e7	1.45e7
lncRNA:CR43372	1	4.08e7	4.13e7	5.34e7	1.83e7
Lerp	1	2.87e7	4.78e7	1.50e7	2.08e7
Lerp	2	2.61e7	4.43e7	1.42e7	2.01e7
Lerp	3	2.65e7	4.74e7	1.45e7	2.10e7
Lerp	4	2.49e7	4.75e7	1.39e7	2.15e7
CG2200	1	3.15e7	4.25e7	1.65e7	2.04e7
Oseg1	1	4.54e7	3.05e7	2.81e7	1.37e7
CG7384	1	4.67e7		2.22e7	
CG34238	1	4.07e7	3.25e7	2.17e7	1.53e7
Pi3K92E	1	4.78e7	3.77e7	2.34e7	1.75e7
PGRP-SB2	1	4.80e7	7.15e7	2.26e7	2.77e7
